According to US8158790B2, “Cyclic amine compound” (Daiichi Sankyo Company, Limited, priority 2006, dated 2012):
Counter-ions that a name gives are not always drawn. Some entries share one result that the patent states for a list of compounds.

target: T1, human renin (Homo sapiens, UniProt P00797); assay: Renin inhibitory activity test, Method 2 (fluorescence-labeled synthetic renin substrate); type: biochemical; settings: concentration inhibiting 50% of angiotensin I generation, incubation at 37° C. for 90 minutes
T1 construct: made in house; host or cells: 293T cells, transient expression; the conditioned medium was used unpurified and treated with trypsin
T1 sequence (P00797 67-406): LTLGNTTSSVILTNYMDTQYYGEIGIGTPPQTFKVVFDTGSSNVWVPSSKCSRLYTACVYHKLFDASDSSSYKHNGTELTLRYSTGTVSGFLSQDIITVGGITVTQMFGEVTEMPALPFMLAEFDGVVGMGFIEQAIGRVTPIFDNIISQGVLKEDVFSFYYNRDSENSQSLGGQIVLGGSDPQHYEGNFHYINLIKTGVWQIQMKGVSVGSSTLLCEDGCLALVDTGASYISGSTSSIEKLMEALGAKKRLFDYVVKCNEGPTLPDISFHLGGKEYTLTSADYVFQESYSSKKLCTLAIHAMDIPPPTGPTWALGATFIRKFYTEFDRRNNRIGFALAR

IC50, ≤ 100 nM:
C[C@H](C[C@H](O)[C@@H](N)CN1CC(=O)N(c2ccc(F)cc2Cl)CC1(C)C)C(=O)NCC(C)(C)C [Example 96, (2R,4S,5S)-5-Amino-6-[4-(2-chloro-4-fluorophenyl)-2,2-dimethyl-5-oxopiperazin-1-yl]-4-hydroxy-2-methylhexanoic acid (2,2-dimethylpropyl)amide hemifumarate]
CC(C)CNC(=O)[C@@H](C[C@H](O)[C@@H](N)CN1CC(=O)N(c2ccc(F)cc2Cl)CC1(C)C)C(C)C [Example 61, (2S,4S,5S)-5-Amino-6-[4-(2-chloro-4-fluorophenyl)-2,2-dimethyl-5-oxopiperazin-1-yl]-4-hydroxy-2-isopropylhexanoic acid isobutylamide hemifumarate]
CC(C)[C@H](C[C@H](O)[C@@H](N)CN1CC(=O)N(c2cc(F)ccc2Cl)CC1(C)C)C(=O)NCC(C)(C)C [Example 64, (2S,4S,5S)-5-Amino-6-[4-(2-chloro-5-fluorophenyl)-2,2-dimethyl-5-oxopiperazin-1-yl]-4-hydroxy-2-isopropylhexanoic acid (2,2-dimethylpropyl)amide hemifumarate]
C[C@H](C[C@H](O)[C@@H](N)CN1CC(=O)N(c2ccccc2Cl)CC1(C)C)C(=O)NC1CCCC1 [Example 81, (2R,4S,5S)-5-Amino-6-[4-(2-chlorophenyl)-2,2-dimethyl-5-oxopiperazin-1-yl]-4-hydroxy-2-methylhexanoic acid cyclopentylamide hemifumarate]
C[C@H](C[C@H](O)[C@@H](N)CN1CC(=O)N(c2ccccc2Cl)CC1(C)C)C(=O)NC1CCCCC1 [Example 82, (2R,4S,5S)-5-Amino-6-[4-(2-chlorophenyl)-2,2-dimethyl-5-oxopiperazin-1-yl]-4-hydroxy-2-methylhexanoic acid cyclohexylamide fumarate]
CC(C)CNC(=O)[C@@H](C[C@H](O)[C@@H](N)CN1CC(=O)N(c2c(F)cccc2F)CC1(C)C)C(C)C [Example 60, (2S,4S,5S)-5-Amino-6-[4-(2,6-difluorophenyl)-2,2-dimethyl-5-oxopiperazin-1-yl]-4-hydroxy-2-isopropylhexanoic acid isobutylamide hemifumarate]
CC(C)[C@H](C[C@H](O)[C@@H](N)CN1CC(=O)N(c2ccccc2Cl)CC1(C)C)C(=O)NCC(C)(C)O [Example 37, (2S,4S,5S)-5-Amino-6-[4-(2-chlorophenyl)-2,2-dimethyl-5-oxopiperazin-1-yl]-4-hydroxy-2-isopropylhexanoic acid (2-hydroxy-2-methylpropyl)amide hemifumarate]
CCc1ccccc1N1CC(C)(C)N(C[C@H](N)[C@@H](O)C[C@@H](CC)C(=O)NCC(C)(C)C)CC1=O [Example 111, (2R,4S,5S)-5-Amino-6-[2,2-dimethyl-4-(2-ethylphenyl)-5-oxopiperazin-1-yl]-2-ethyl-4-hydroxyhexanoic acid (2,2-dimethylpropyl)amide hemifumarate]
CC(C)[C@H](C[C@H](O)[C@@H](N)CN1CC(=O)N(c2ccccc2Cl)CC1(C)C)C(=O)Nc1cccnc1 [Example 45, (2S,4S,5S)-5-Amino-6-[4-(2-chlorophenyl)-2,2-dimethyl-5-oxopiperazin-1-yl]-4-hydroxy-2-isopropylhexanoic acid (3-pyridyl)amide fumarate]
CCC[C@H](C[C@H](O)[C@@H](N)CN1CC(=O)N(c2ccccc2Cl)CC1(C)C)C(=O)NCC(C)C [Example 117, (2R,4S,5S)-5-Amino-6-[4-(2-chlorophenyl)-2,2-dimethyl-5-oxopiperazin-1-yl]-4-hydroxy-2-propylhexanoic acid isobutylamide hemifumarate]
C[C@H](C[C@H](O)[C@@H](N)CN1CC(=O)N(c2cccc(F)c2F)CC1(C)C)C(=O)NC1CCCCC1 [Example 91, (2R,4S,5S)-5-Amino-6-[4-(2,3-difluorophenyl)-2,2-dimethyl-5-oxopiperazin-1-yl]-4-hydroxy-2-methylhexanoic acid cyclohexylamide hemifumarate]
CC(C)[C@H](C[C@H](O)[C@@H](N)CN1CC(=O)N(c2ccccc2Cl)CC1(C)C)C(=O)NCC(C)(C)CO [Example 8, (2S,4S,5S)-5-Amino-6-[4-(2-chlorophenyl)-2,2-dimethyl-5-oxopiperazin-1-yl]-4-hydroxy-2-isopropylhexanoic acid (3-hydroxy-2,2-dimethylpropyl)amide fumarate]
Cc1ccc(F)cc1N1CC(C)(C)N(C[C@H](N)[C@@H](O)C[C@H](C(=O)NC2CCCCC2)C(C)C)CC1=O [Example 72, (2S,4S,5S)-5-Amino-6-[2,2-dimethyl-4-(5-fluoro-2-methylphenyl)-5-oxopiperazin-1-yl]-4-hydroxy-2-isopropylhexanoic acid cyclohexylamide hemifumarate]
C[C@H](C[C@H](O)[C@@H](N)CN1CC(=O)N(c2ccccc2C(F)(F)F)CC1(C)C)C(=O)NCC(C)(C)C [Example 88, (2R,4S,5S)-5-Amino-6-[2,2-dimethyl-5-oxo-4-(2-trifluoromethylphenyl)piperazin-1-yl]-4-hydroxy-2-methylhexanoic acid (2,2-dimethylpropyl)amide hemifumarate]
COCCCOc1cccc(N2CCN(C[C@H](N)[C@@H](O)C[C@H](C(=O)NCC(C)(C)C(N)=O)C(C)C)C(C)(C)C2)c1 [Example 30, (2S,4S,5S)-5-Amino-4-hydroxy-2-isopropyl-6-{4-[3-(3-methoxypropoxy)phenyl]-2,2-dimethylpiperazin-1-yl}hexanoic acid (2-carbamoyl-2-methylpropyl)amide fumarate]
CC(C)[C@H](C[C@H](O)[C@@H](N)CN1CC(=O)N(c2cc(Cl)ccc2Cl)CC1(C)C)C(=O)NCC(C)(C)C(N)=O [Example 26, (2S,4S,5S)-5-Amino-6-[4-(2,5-dichlorophenyl)-2,2-dimethyl-5-oxopiperazin-1-yl]-4-hydroxy-2-isopropylhexanoic acid (2-carbamoyl-2-methylpropyl)amide fumarate]
CC[C@H](C[C@H](O)[C@@H](N)CN1CC(=O)N(c2cccc(F)c2C)CC1(C)C)C(=O)NCC(C)C [Example 113, (2R,4S,5S)-5-Amino-6-[2,2-dimethyl-4-(3-fluoro-2-methylphenyl)-5-oxopiperazin-1-yl]-2-ethyl-4-hydroxyhexanoic acid isobutylamide fumarate]
CC(C)CNC(=O)[C@@H](C[C@H](O)[C@@H](N)CN1CC(=O)N(c2cccc(F)c2F)CC1(C)C)C(C)C [Example 57, (2S,4S,5S)-5-Amino-6-[4-(2,3-difluorophenyl)-2,2-dimethyl-5-oxopiperazin-1-yl]-4-hydroxy-2-isopropylhexanoic acid isobutylamide fumarate]
CC(C)CNC(=O)[C@H](C)C[C@H](O)[C@@H](N)CN1CC(=O)N(c2ccccc2Cl)CC1(C)C [Example 77, (2R,4S,5S)-5-Amino-6-[4-(2-chlorophenyl)-2,2-dimethyl-5-oxopiperazin-1-yl]-4-hydroxy-2-methylhexanoic acid isobutylamide hemifumarate]
CC(C)[C@H](C[C@H](O)[C@@H](N)CN1CC(=O)N(c2cc(F)cc(F)c2)CC1(C)C)C(=O)NCC(C)(C)C(N)=O [Example 25, (2S,4S,5S)-5-Amino-6-[4-(3,5-difluorophenyl)-2,2-dimethyl-5-oxopiperazin-1-yl]-4-hydroxy-2-isopropylhexanoic acid (2-carbamoyl-2-methylpropyl)amide hemifumarate]
CCCCNC(=O)[C@@H](C[C@H](O)[C@@H](N)CN1CC(=O)N(c2ccc(F)cc2)CC1(C)C)C(C)C [Example 50, (2S,4S,5S)-5-Amino-6-[4-(4-fluorophenyl)-2,2-dimethyl-5-oxopiperazin-1-yl]-4-hydroxy-2-isopropylhexanoic acid butylamide fumarate]
CCc1ccccc1N1CC(C)(C)N(C[C@H](N)[C@@H](O)C[C@H](C(=O)NCC(C)(C)C)C(C)C)CC1=O [Example 53, (2S,4S,5S)-5-Amino-6-[2,2-dimethyl-4-(2-ethylphenyl)-5-oxopiperazin-1-yl]-4-hydroxy-2-isopropylhexanoic acid (2,2-dimethylpropyl)amide hemifumarate]
CC(C)CNC(=O)[C@@H](C[C@H](O)[C@@H](N)CN1CC(=O)N(c2cc(F)cc(F)c2F)CC1(C)C)C(C)C [Example 75, (2S,4S,5S)-5-Amino-6-[2,2-dimethyl-5-oxo-4-(2,3,5-trifluorophenyl)piperazin-1-yl]-4-hydroxy-2-isopropylhexanoic acid isobutylamide fumarate]
CC[C@H](C[C@H](O)[C@@H](N)CN1CC(=O)N(c2cc(F)ccc2C)CC1(C)C)C(=O)NCC(C)(C)C [Example 114, (2R,4S,5S)-5-Amino-6-[2,2-dimethyl-4-(5-fluoro-2-methylphenyl)-5-oxopiperazin-1-yl]-2-ethyl-4-hydroxyhexanoic acid (2,2-dimethylpropyl)amide hemifumarate]
Cc1ccc(F)cc1N1CC(C)(C)N(C[C@H](N)[C@@H](O)C[C@@H](C)C(=O)NCC(C)C)CC1=O [Example 102, (2R,4S,5S)-5-Amino-6-[2,2-dimethyl-4-(5-fluoro-2-methylphenyl)-5-oxopiperazin-1-yl]-4-hydroxy-2-methylhexanoic acid isobutylamide hemifumarate]
